{
  "sequences": {"note": "Chains of the proteins cited; added tags and fusions are not shown. Chains listed by the source or under a name are the forms on record and can include a tag or linker.", "CST(STN1-OBM) W89A,R139L,Y141A (human), one chain, as listed by the source W89A R139L Y141A, chain 2 of 3": "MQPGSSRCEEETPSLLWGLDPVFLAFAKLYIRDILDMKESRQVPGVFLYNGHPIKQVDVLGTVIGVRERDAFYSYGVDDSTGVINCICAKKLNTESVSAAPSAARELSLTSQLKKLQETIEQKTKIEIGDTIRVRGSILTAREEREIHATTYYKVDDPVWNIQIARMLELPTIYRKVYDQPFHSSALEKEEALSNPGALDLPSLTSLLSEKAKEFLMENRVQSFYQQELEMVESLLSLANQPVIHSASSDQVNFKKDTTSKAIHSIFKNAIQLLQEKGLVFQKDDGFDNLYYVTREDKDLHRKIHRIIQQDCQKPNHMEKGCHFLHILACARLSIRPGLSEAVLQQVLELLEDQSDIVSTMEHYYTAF", "CST(WT) (CTC1-STN1-TEN1) (human), one chain, as listed by the source, chain 2 of 3": "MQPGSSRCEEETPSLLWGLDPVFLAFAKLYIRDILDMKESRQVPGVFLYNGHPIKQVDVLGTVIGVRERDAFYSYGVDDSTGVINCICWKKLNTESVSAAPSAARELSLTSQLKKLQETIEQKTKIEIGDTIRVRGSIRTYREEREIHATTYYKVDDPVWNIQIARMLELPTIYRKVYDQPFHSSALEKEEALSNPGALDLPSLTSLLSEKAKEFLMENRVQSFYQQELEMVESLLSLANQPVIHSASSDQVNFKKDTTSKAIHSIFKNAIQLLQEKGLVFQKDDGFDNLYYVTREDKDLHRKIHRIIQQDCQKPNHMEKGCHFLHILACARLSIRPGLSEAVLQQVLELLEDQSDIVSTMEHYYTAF"},
  "source": "paper PMC5045167",
  "key": {"[1]": {"test_system": "CST(STN1-OBM) W89A,R139L,Y141A (human)", "assay": "EMSA", "conditions": "25 mM Tris pH 8.0, 1 mM DTT, 150 mM NaCl, EMSA 0.1 nM DNA, 30 min RT, filter binding 0.01 nM DNA, 18 h 4 C, crosslinking 20 nM CST, 2 nM DNA, UVA on ice, recombinant protein, protein details: N-terminal FLAG-CTC1, His-STN1-OBM, TEN1 untagged, label: 32P, single-stranded DNA"}, "[2]": {"test_system": "CST(STN1-OBM) W89A,R139L,Y141A (human)", "assay": "filter binding", "conditions": "25 mM Tris pH 8.0, 1 mM DTT, 150 mM NaCl, filter binding 0.01 nM DNA, 18 h 4 C, crosslinking 20 nM CST, 2 nM DNA, UVA on ice, recombinant protein, protein details: N-terminal FLAG-CTC1, His-STN1-OBM, TEN1 untagged, label: 32P, single-stranded DNA"}, "[3]": {"test_system": "CST(WT) (CTC1-STN1-TEN1) (human)", "assay": "EMSA", "conditions": "s4T does not significantly alter binding, 25 mM Tris pH 8.0, 1 mM DTT, 150 mM NaCl, EMSA 0.1 nM DNA, 30 min RT, filter binding 0.01 nM DNA, 18 h 4 C, crosslinking 20 nM CST, 2 nM DNA, UVA on ice, recombinant protein, label: 32P, single-stranded DNA, letters put together from the description"}, "[4]": {"test_system": "CST(STN1-OBM) W89A,R139L,Y141A (human)", "assay": "UV crosslinking", "conditions": "25 mM Tris pH 8.0, 1 mM DTT, 150 mM NaCl, filter binding 0.01 nM DNA, 18 h 4 C, crosslinking 20 nM CST, 2 nM DNA, UVA on ice, recombinant protein, protein details: N-terminal FLAG-CTC1, His-STN1-OBM, TEN1 untagged, label: 32P, single-stranded DNA, letters put together from the description"}, "[5]": {"conditions": "4-thiothymidine at position 3 (third nt from 5' end)"}},
  "note": "Construct, isoform or probe ends are uncertain for at least one entry. For some assays here: Weaker means in comparison with the reference protein, sequence or condition of that experiment. For some assays here: At least one verdict was read from the data and is not stated in words by the source.",
  "data": [
    {"sequence": "GGTTAGGGTTAGGGTTAG [TelG-18]", "values": [
      {"measurement": "binding result", "setting": "[1]; 0.5-20 nM CST", "value": "binds more weakly"},
      {"measurement": "binding result", "setting": "[2]; 4 C, 18 h", "value": "binds more weakly"}
    ]},
    {"sequence": "GGTTAGGGTTAGGGTTAGGGTTAGGGTTAGGGTTAGGGTTAGGGTTAG [5'-s4T TelG-48]", "values": [
      {"measurement": "binding result", "setting": "[1]; s4T does not significantly alter binding, 4-thiothymidine at position 3 (third nt from 5' end), letters put together from the description", "value": "binds"},
      {"measurement": "binding result", "setting": "[3]; [5]", "value": "binds"}
    ]},
    {"sequence": "GGTTAGGGTTAGGGTTAG [5'-s4T TelG-18]", "values": [
      {"measurement": "binding result", "setting": "[1]; s4T does not significantly alter binding, unmodified TelG-18 is weaker than WT, 4-thiothymidine at position 3 (third nt from 5' end), letters put together from the description", "value": "binds more weakly"},
      {"measurement": "binding result", "setting": "[3]; [5]", "value": "binds"}
    ]},
    {"sequence": "AGCGTATCCGTTCAGTTGAGCGTATCCGTTCAGTTG [NonTel-36]", "values": [
      {"measurement": "binding result", "setting": "[1]", "value": "binds more weakly"},
      {"measurement": "binding result", "setting": "[2]; dissociates 1.6-2.6-fold faster than CST(WT) (range for TelG-18 and NonTel-36)", "value": "binds more weakly"}
    ]},
    {"sequence": "GGTTAGGGTTAGGGTTAG [3'-s4T TelG-18]", "values": [
      {"measurement": "binding result", "setting": "[1]; s4T does not significantly alter binding, unmodified TelG-18 is weaker than WT, 4-thiothymidine at position 16 (third nt from 3' end), letters put together from the description", "value": "binds more weakly"},
      {"measurement": "binding result", "setting": "[3]; 4-thiothymidine at position 16 (third nt from 3' end)", "value": "binds"},
      {"measurement": "binding result", "setting": "[4]; STN1 crosslink reduced vs WT, 4-thiothymidine at position 16 (third nt from 3' end)", "value": "binds more weakly"}
    ]},
    {"sequence": "GGTTAGGGTTAGGGTTAGGGTTAGGGTTAGGGTTAGGGTTAGGGTTAG [3'-s4T TelG-48]", "values": [
      {"measurement": "binding result", "setting": "[1]; s4T does not significantly alter binding, 4-thiothymidine at position 46 (third nt from 3' end), letters put together from the description", "value": "binds"},
      {"measurement": "binding result", "setting": "[3]; 4-thiothymidine at position 46 (third nt from 3' end)", "value": "binds"},
      {"measurement": "binding result", "setting": "[4]; STN1 and TEN1 crosslinks reduced, CTC1 crosslink still formed, 4-thiothymidine at position 46 (third nt from 3' end)", "value": "binds more weakly"}
    ]}
  ]
}
